Results on 2 substances are retold here after paper PMC8198571.

Protein sequences, listed by entry. Tags and fused reporters are not part of them.
UniProt P25071: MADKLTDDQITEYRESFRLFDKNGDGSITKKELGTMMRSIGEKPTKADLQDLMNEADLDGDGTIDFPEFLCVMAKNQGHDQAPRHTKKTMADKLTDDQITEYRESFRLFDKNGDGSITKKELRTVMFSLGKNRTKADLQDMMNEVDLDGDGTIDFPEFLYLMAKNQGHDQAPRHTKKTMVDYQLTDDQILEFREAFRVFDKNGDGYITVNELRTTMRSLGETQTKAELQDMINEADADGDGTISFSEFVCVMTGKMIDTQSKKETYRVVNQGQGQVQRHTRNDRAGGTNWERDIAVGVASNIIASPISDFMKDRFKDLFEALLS

Assay [1] deals with T1, MLO4 (full length), LCI construct (Arabidopsis thaliana) (UniProt O23693).
T1 sequence: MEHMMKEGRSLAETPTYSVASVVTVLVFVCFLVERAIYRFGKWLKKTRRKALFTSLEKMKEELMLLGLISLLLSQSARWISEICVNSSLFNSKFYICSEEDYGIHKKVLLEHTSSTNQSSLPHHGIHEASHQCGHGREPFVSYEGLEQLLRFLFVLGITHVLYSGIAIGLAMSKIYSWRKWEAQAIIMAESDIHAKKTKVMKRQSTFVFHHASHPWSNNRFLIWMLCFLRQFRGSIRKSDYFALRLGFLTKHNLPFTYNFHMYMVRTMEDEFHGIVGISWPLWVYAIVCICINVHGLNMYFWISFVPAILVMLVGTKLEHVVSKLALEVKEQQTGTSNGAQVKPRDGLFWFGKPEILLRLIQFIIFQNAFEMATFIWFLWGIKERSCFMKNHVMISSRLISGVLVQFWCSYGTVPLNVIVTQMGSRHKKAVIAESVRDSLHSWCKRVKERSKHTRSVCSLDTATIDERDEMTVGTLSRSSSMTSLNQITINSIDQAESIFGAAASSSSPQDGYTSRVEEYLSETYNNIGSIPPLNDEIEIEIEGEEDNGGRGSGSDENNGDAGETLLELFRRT
Nature of the assay: split reporter; Luciferase Complementation Imaging (LCI); CML12 in pCAMBIA1300-nLUC, MLO4 in pCAMBIA1300-cLUC; tobacco leaves injected with A. tumefaciens GV3101; signal detected 3-6 days after infiltration.

Assay [2] concerns the target T2, MLO4 (full length), BiFC construct (Arabidopsis thaliana) (UniProt O23693).
T2 sequence: T1 sequence
Nature of the assay: split reporter; BiFC, YFP signal; onion epidermal cells transformed with a gene gun; read after 16-24 hours by confocal microscopy.

These are yes or no findings as the source states them, for the method shown. Binding seen in cells or lysates may run through a third protein. Some entries that bind do so weakly or less than the wild type.

For “CML12, LCI construct (from UniProt P25071 1-324)”, the binding entry in assay [1] is on record as “binds”.

Turning to “CML12, BiFC construct (from UniProt P25071 1-324)”, in assay [2], the binding entry is recorded as “binds”.
